We go through one molecule from PMC6511843.

The target in this assay is GST-USP17(ΔH) (human). The experiment in a line: pull-down; GST or GST-USP17 fusions on glutathione agarose beads incubated with recombinant ELK-1, ELK-1 deletion mutants or ERK2; bound proteins detected by immunoblotting with an anti-His antibody; both purified.

These are yes or no findings as the source states them, for the method shown. A result given as binding can be weak or reduced; the word gives no strength.

B1: recombinant ELK-1 (protein, UniProt P19419 1-428)
chain: MDPSVTLWQFLLQLLREQGNGHIISWTSRDGGEFKLVDAEEVARLWGLRKNKTNMNYDKLSRALRYYYDKNIIRKVSGQKFVYKFVSYPEVAGCSTEDCPPQPEVSVTSTMPNVAPAAIHAAPGDTVSGKPGTPKGAGMAGPGGLARSSRNEYMRSGLYSTFTIQSLQPQPPPHPRPAVVLPSAAPAGAAAPPSGSRSTSPSPLEACLEAEEAGLPLQVILTPPEAPNLKSEELNVEPGLGRALPPEVKVEGPKEELEVAGERGFVPETTKAEPEVPPQEGVPARLPAVVMDTAGQAGGHAASSPEISQPQKGRKPRDLELPLSPSLLGGPGPERTPGSGSGSGLQAPGPALTPSLLPTHTLTPVLLTPSSLPPSIHFWSTLSPIAPRSPAKLSFQFPSSGSAQVHIPSISVDGLSTPVVLSPGPQKP
As for B1, the binding result is “binds”.
